Measured values from the supplement of paper PMC8728848.
The list shows a part of the results.

Assays:
Experiment in all cases: glycan array binding signal (z-score within array); higher = stronger binding
Details in all cases: glycan notation: IUPAC condensed, linker removed
[1] = target: Neu5Ac(a2-3)Gal(b1-3)GalNAc
Procedure, shortened: (§1)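 Columns mapping to the same glycan were averaged after glycan names were converted to IUPAC-condensed notation. The data come from 3228 arrays in the Consortium for Functional Glycomics database, limited to those with an available protein sequence. Binding is reported as a within-array Z-score averaged across arrays of one protein sequence and across linkers.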

[2] = target: Neu5Ac(a2-3)Gal(b1-3)GalNAc(b1-3)Gal(a1-4)Gal(b1-4)Glc
Procedure, shortened: as §1

[3] = target: Neu5Ac(a2-3)Gal(b1-3)GalNAc(b1-4)Gal(b1-4)Glc
Procedure, shortened: as §1

[4] = target: Neu5Ac(a2-3)Gal(b1-3)GalNAc(b1-4)[Neu5Ac(a2-3)]Gal(b1-4)Glc
Procedure, shortened: as §1

[5] = target: Neu5Ac(a2-3)Gal(b1-3)GalNAc(b1-4)[Neu5Ac(a2-8)Neu5Ac(a2-3)]Gal(b1-4)Glc
Procedure, shortened: as §1

[6] = target: Neu5Ac(a2-3)Gal(b1-3)GalNAc6S
Procedure, shortened: as §1

[7] = target: Neu5Ac(a2-3)Gal(b1-3)GlcNAc
Procedure, shortened: as §1

[8] = target: Neu5Ac(a2-3)Gal(b1-3)GlcNAc(b1-2)Man
Procedure, shortened: as §1

[9] = target: Neu5Ac(a2-3)Gal(b1-3)GlcNAc(b1-2)Man(a1-3)[GlcNAc(b1-4)][Neu5Ac(a2-3)Gal(b1-3)GlcNAc(b1-2)Man(a1-6)]Man(b1-4)GlcNAc(b1-4)GlcNAc
Procedure, shortened: as §1

[10] = target: Neu5Ac(a2-3)Gal(b1-3)GlcNAc(b1-2)Man(a1-3)[Neu5Ac(a2-3)Gal(b1-3)GlcNAc(b1-2)Man(a1-6)]Man(b1-4)GlcNAc(b1-4)GlcNAc
Procedure, shortened: as §1

[11] = target: Neu5Ac(a2-3)Gal(b1-3)GlcNAc(b1-2)[Neu5Ac(a2-3)Gal(b1-3)GlcNAc(b1-4)]Man(a1-6)[Neu5Ac(a2-3)Gal(b1-3)GlcNAc(b1-2)Man(a1-3)]Man(b1-4)GlcNAc(b1-4)GlcNAc
Procedure, shortened: as §1

[12] = target: Neu5Ac(a2-3)Gal(b1-3)GlcNAc(b1-3)Gal(b1-3)GlcNAc
Procedure, shortened: as §1

[13] = target: Neu5Ac(a2-3)Gal(b1-3)GlcNAc(b1-3)Gal(b1-4)GlcNAc
Procedure, shortened: as §1

[14] = target: Neu5Ac(a2-3)Gal(b1-3)GlcNAc(b1-3)GalNAc
Procedure, shortened: as §1

[15] = target: Neu5Ac(a2-3)Gal(b1-3)GlcNAc(b1-6)GalNAc
Procedure, shortened: as §1

[16] = target: Neu5Ac(a2-3)Gal(b1-3)GlcNAc6S
Procedure, shortened: as §1

[17] = target: Neu5Ac(a2-3)Gal(b1-3)[Fuc(a1-4)]GlcNAc
Procedure, shortened: as §1

[18] = target: Neu5Ac(a2-3)Gal(b1-3)[Fuc(a1-4)]GlcNAc(b1-3)Gal(b1-3)[Fuc(a1-4)]GlcNAc
Procedure, shortened: as §1

[19] = target: Neu5Ac(a2-3)Gal(b1-3)[Fuc(a1-4)]GlcNAc(b1-3)Gal(b1-4)[Fuc(a1-3)]GlcNAc
Procedure, shortened: as §1

[20] = target: Neu5Ac(a2-3)Gal(b1-3)[GlcNAc(b1-6)]GalNAc
Procedure, shortened: as §1

[21] = target: Neu5Ac(a2-3)Gal(b1-3)[Neu5Ac(a2-6)]GalNAc
Procedure, shortened: as §1

[22] = target: Neu5Ac(a2-3)Gal(b1-3)[Neu5Ac(a2-6)]GlcNAc(b1-3)[Fuc(a1-3)[Gal(b1-4)]GlcNAc(b1-6)]Gal(b1-4)Glc
Procedure, shortened: as §1

[23] = target: Neu5Ac(a2-3)Gal(b1-3)]Neu5Ac(a2-3)Gal(b1-4)]GlcNAc
Procedure, shortened: as §1

Neu5Ac(a2-3)Gal(b1-4)Glc = target: Neu5Ac(a2-3)Gal(b1-4)Glc
Procedure, shortened: as §1

[24] = target: Neu5Ac(a2-3)Gal(b1-4)GlcNAc
Procedure, shortened: as §1

[25] = target: Neu5Ac(a2-3)Gal(b1-4)GlcNAc(b1-2)Man
Procedure, shortened: as §1

[26] = target: Neu5Ac(a2-3)Gal(b1-4)GlcNAc(b1-2)Man(a1-3)[GlcNAc(b1-4)][Neu5Ac(a2-3)Gal(b1-4)GlcNAc(b1-2)Man(a1-6)]Man(b1-4)GlcNAc(b1-4)GlcNAc
Procedure, shortened: as §1

[27] = target: Neu5Ac(a2-3)Gal(b1-4)GlcNAc(b1-2)Man(a1-3)[Neu5Ac(a2-3)Gal(b1-4)GlcNAc(b1-2)Man(a1-6)]Man(b1-4)GlcNAc(b1-4)GlcNAc
Procedure, shortened: as §1

[28] = target: Neu5Ac(a2-3)Gal(b1-4)GlcNAc(b1-2)Man(a1-3)[Neu5Ac(a2-3)Gal(b1-4)GlcNAc(b1-2)Man(a1-6)]Man(b1-4)GlcNAc(b1-4)[Fuc(a1-6)]GlcNAc
Procedure, shortened: as §1

[29] = target: Neu5Ac(a2-3)Gal(b1-4)GlcNAc(b1-2)Man(a1-3)[Neu5Ac(a2-6)Gal(b1-4)GlcNAc(b1-2)Man(a1-6)]Man(b1-4)GlcNAc(b1-4)GlcNAc
Procedure, shortened: as §1

[30] = target: Neu5Ac(a2-3)Gal(b1-4)GlcNAc(b1-2)[Neu5Ac(a2-3)Gal(b1-4)GlcNAc(b1-4)]Man(a1-3)[GlcNAc(b1-4)][Neu5Ac(a2-3)Gal(b1-4)GlcNAc(b1-2)[Neu5Ac(a2-3)Gal(b1-4)GlcNAc(b1-6)]Man(a1-6)]Man(b1-4)GlcNAc(b1-4)GlcNAc
Procedure, shortened: as §1

[31] = target: Neu5Ac(a2-3)Gal(b1-4)GlcNAc(b1-2)[Neu5Ac(a2-3)Gal(b1-4)GlcNAc(b1-4)]Man(a1-3)[GlcNAc(b1-4)][Neu5Ac(a2-3)Gal(b1-4)GlcNAc(b1-4)Man(a1-6)]Man(b1-4)GlcNAc(b1-4)GlcNAc
Procedure, shortened: as §1

[32] = target: Neu5Ac(a2-3)Gal(b1-4)GlcNAc(b1-2)[Neu5Ac(a2-3)Gal(b1-4)GlcNAc(b1-6)]Man(a1-6)[Neu5Ac(a2-3)Gal(b1-4)GlcNAc(b1-2)Man(a1-3)][GlcNAc(b1-4)]Man(b1-4)GlcNAc(b1-4)GlcNAc
Procedure, shortened: as §1

[33] = target: Neu5Ac(a2-3)Gal(b1-4)GlcNAc(b1-3)Gal
Procedure, shortened: as §1

[34] = target: Neu5Ac(a2-3)Gal(b1-4)GlcNAc(b1-3)Gal(b1-3)GlcNAc
Procedure, shortened: as §1

[35] = target: Neu5Ac(a2-3)Gal(b1-4)GlcNAc(b1-3)Gal(b1-4)GlcNAc
Procedure, shortened: as §1

[36] = target: Neu5Ac(a2-3)Gal(b1-4)GlcNAc(b1-3)Gal(b1-4)GlcNAc(b1-2)Man(a1-3)[Neu5Ac(a2-3)Gal(b1-4)GlcNAc(b1-3)Gal(b1-4)GlcNAc(b1-2)Man(a1-6)]Man(b1-4)GlcNAc(b1-4)GlcNAc
Procedure, shortened: as §1

[37] = target: Neu5Ac(a2-3)Gal(b1-4)GlcNAc(b1-3)Gal(b1-4)GlcNAc(b1-3)Gal(b1-4)GlcNAc
Procedure, shortened: as §1

[38] = target: Neu5Ac(a2-3)Gal(b1-4)GlcNAc(b1-3)Gal(b1-4)GlcNAc(b1-3)Gal(b1-4)GlcNAc(b1-2)Man(a1-3)[Neu5Ac(a2-3)Gal(b1-4)GlcNAc(b1-3)Gal(b1-4)GlcNAc(b1-3)Gal(b1-4)GlcNAc(b1-2)Man(a1-6)]GalNAc
Procedure, shortened: as §1

[39] = target: Neu5Ac(a2-3)Gal(b1-4)GlcNAc(b1-3)Gal(b1-4)GlcNAc(b1-3)GalNAc
Procedure, shortened: as §1

[40] = target: Neu5Ac(a2-3)Gal(b1-4)GlcNAc(b1-3)Gal(b1-4)GlcNAc(b1-3)[Neu5Ac(a2-3)Gal(b1-4)GlcNAc(b1-3)Gal(b1-4)GlcNAc(b1-6)]GalNAc
Procedure, shortened: as §1

[41] = target: Neu5Ac(a2-3)Gal(b1-4)GlcNAc(b1-3)Gal(b1-4)GlcNAc(b1-6)[Gal(b1-3)]GalNAc
Procedure, shortened: as §1

[42] = target: Neu5Ac(a2-3)Gal(b1-4)GlcNAc(b1-3)Gal(b1-4)[Fuc(a1-3)]GlcNAc
Procedure, shortened: as §1

[43] = target: Neu5Ac(a2-3)Gal(b1-4)GlcNAc(b1-3)GalNAc
Procedure, shortened: as §1

[44] = target: Neu5Ac(a2-3)Gal(b1-4)GlcNAc(b1-3)[Neu5Ac(a2-3)Gal(b1-4)GlcNAc(b1-6)]GalNAc
Procedure, shortened: as §1

B1: LF82 (Escherichia coli) (protein)
chain: ADWGPCRTASGDPFIFVTSFTKNIQNPTDNVTGQTYPDFYQWALGDKYSGVCECPSPNPTEARPTLYKTESTLAAGHNSTYFKITNNLEVSTRVYIANVGNVQVPFINKSNSQPGRECDQPTFGWTTGSKGQLSLYIAKPFVGEQNIPQTIIVSVFGTKKENVYSSVPISQVLLSGKVTVTQGCELAAGTSLDIDFGEYQAHDFKGRTGQPPQNVQKIQKELTFNCTNISDGVHIYLSLEGTPNAAYPSAISLGNADVGAVIEDGKGNILKPNDSNSLLEMNPGSLYEYVKRKVTTTITAYPVSTTGKLPAAGDYSGVATMHVELDGGGGGGGGGGATTDLGAKGTLKFSLKISQGHHHHHH
- glycan array binding signal (z-score) [1]: 0.245
- glycan array binding signal (z-score) [2]: -0.134
- glycan array binding signal (z-score) [3]: 0.851
- glycan array binding signal (z-score) [4]: 0.664
- glycan array binding signal (z-score) [5]: 0.27
- glycan array binding signal (z-score) [6]: 0.435
- glycan array binding signal (z-score) [7]: -0.198
- glycan array binding signal (z-score) [8]: -0.396
- glycan array binding signal (z-score) [9]: -0.92
- glycan array binding signal (z-score) [10]: 0.215
- glycan array binding signal (z-score) [11]: 4.88
- glycan array binding signal (z-score) [12]: -0.469
- glycan array binding signal (z-score) [13]: 0.773
- glycan array binding signal (z-score) [14]: -1.31
- glycan array binding signal (z-score) [15]: -0.373
- glycan array binding signal (z-score) [16]: -0.44
- glycan array binding signal (z-score) [17]: 0.215
- glycan array binding signal (z-score) [18]: -0.355
- glycan array binding signal (z-score) [19]: -0.501
- glycan array binding signal (z-score) [20]: -0.063
- glycan array binding signal (z-score) [21]: 0.053
- glycan array binding signal (z-score) [22]: 2.35
- glycan array binding signal (z-score) [23]: -0.87
- glycan array binding signal (z-score) (Neu5Ac(a2-3)Gal(b1-4)Glc): 0.503
- glycan array binding signal (z-score) [24]: -0.725
- glycan array binding signal (z-score) [25]: 1.36
- glycan array binding signal (z-score) [26]: -0.202
- glycan array binding signal (z-score) [27]: -0.284
- glycan array binding signal (z-score) [28]: 1.48
- glycan array binding signal (z-score) [29]: 0.122
- glycan array binding signal (z-score) [30]: 1.62
- glycan array binding signal (z-score) [31]: 2.08
- glycan array binding signal (z-score) [32]: 0.16
- glycan array binding signal (z-score) [33]: -0.212
- glycan array binding signal (z-score) [34]: -1.05
- glycan array binding signal (z-score) [35]: 0.028
- glycan array binding signal (z-score) [36]: -0.541
- glycan array binding signal (z-score) [37]: -1.09
- glycan array binding signal (z-score) [38]: -0.239
- glycan array binding signal (z-score) [39]: 0.079
- glycan array binding signal (z-score) [40]: 1.1
- glycan array binding signal (z-score) [41]: -1.48
- glycan array binding signal (z-score) [42]: -0.125
- glycan array binding signal (z-score) [43]: 0.002
- glycan array binding signal (z-score) [44]: -0.974
